According to PubChem BioAssay AID292 (DTP/NCI, 2004):
The list is a part of this screen's results and no random one: it is rich in T/C values a quarter to a half above the control, in often repeated tests (any T/C) and in doses without a T/C. Further doses and runs are listed elsewhere. T/C is the treated group as % of the vehicle group. Some doses have a count of surviving animals in place of a T/C: the source holds a T/C of zero for them, seemingly a mark for toxic or unscored doses. Some survivor counts are full or nearly so, which does not show that the dose was tolerated: survival well below the control is almost never listed, so the zero probably covers shortened survival too. Counts of survivors are from the toxicity check (mostly the fifth day) where no day follows; animals may have died later. Schedules are NCI's codes, read here as Q, the interval in days (D) or hours (H), X, the number of doses. Some entries hold several experiments; the results are listed from low to high. For survival time, the PubChem record calls one and a half times the control and up active, and a quarter to a half above the control has no call in these data; cut-offs in other NCI protocols can differ. Some T/C values carry the count of animals alive at the toxicity check (mostly the fifth day); where none is given, no animal had died by that day.

Test system: B6C3F1 mice, ip Sarcoma M5076, median survival T/C
Experiment: NCI In Vivo Anticancer Drug Screen. Data for tumor model Sarcoma M5076 (intraperitoneal) in B6C3F1 mice
Settings: T/C endpoint: median survival time, higher T/C = longer survival
Outline: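 Tumour cells were transplanted into mice, compound or vehicle was given, survival of both groups was followed, and the treated figure was expressed over the control figure.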

[1] = dose: 400.0 mg/kg/injection, schedule: Q04DX004 (ip), vehicle: Klucel (hydroxypropylcellulose) (HPC)
[2] = dose: 2.0 mg/kg/injection, schedule: Q04DX004 (ip), vehicle: Klucel (hydroxypropylcellulose) (HPC)
[3] = dose: 600.0 mg/kg/injection, schedule: Q04DX004 (ip), vehicle: saline with Tween-80
[4] = dose: 200.0 mg/kg/injection, schedule: Q04DX004 (ip), vehicle: Klucel (hydroxypropylcellulose) (HPC)
[5] = dose: 100.0 mg/kg/injection, schedule: Q04DX004 (ip), vehicle: Klucel (hydroxypropylcellulose) (HPC)

For `CC[C@@]1(O)C(=O)OCc2c1cc1n(c2=O)Cc2cc3cc(O)ccc3nc2-1`, the T/C (dose: 4.0 mg/kg/injection, schedule: Q04DX004 (ip), vehicle: suspension in saline) was 133 % of control, the T/C (dose: 7.5 mg/kg/injection, schedule: Q04DX004 (ip), vehicle: suspension in saline) was 134 % of control and the T/C (dose: 11.12 mg/kg/injection, schedule: Q04DX004 (ip), vehicle: suspension in saline) was 126 % of control [8 of 10 alive on day 14]. For the same molecule, the T/C (dose: 15.0 mg/kg/injection, schedule: Q04DX004 (ip), vehicle: suspension in saline) was 142 % of control [8 of 10 alive on day 14], the survivor count (dose: 18.53 mg/kg/injection, schedule: Q04DX004 (ip), vehicle: suspension in saline) was 0 of 10 on day 14 and the survivor count (dose: 30.0 mg/kg/injection, schedule: Q04DX004 (ip), vehicle: suspension in saline) was 0 of 10 on day 14.
With `CN(C)CCOCC(O)(c1ccccc1)c1ccccc1` the survivor count (dose: 150.0 mg/kg/injection, schedule: Q04DX004 (ip), vehicle: saline) was 4 of 10 on day 14, the survivor count (dose: 300.0 mg/kg/injection, schedule: Q04DX004 (ip), vehicle: saline) was 0 of 10 on day 14 and the survivor count (dose: 600.0 mg/kg/injection, schedule: Q04DX004 (ip), vehicle: saline) was 0 of 10 on day 14.
In the case of `CN(C)CCCOc1nc2c(c(=O)n(C)c(=O)n2C)n1C` (tested in a mixture with another compound), the T/C (dose: 12.5 mg/kg/injection, schedule: Q04DX004 (ip), vehicle: Klucel (hydroxypropylcellulose) (HPC)) is reported as 128 % of control, the T/C (dose: 25.0 mg/kg/injection, schedule: Q04DX004 (ip), vehicle: Klucel (hydroxypropylcellulose) (HPC)) is reported as 141 and 147 % of control and the survivor count [1] is reported as 0 of 8 on day 14.
With `COC(=O)C12OCC34C(CC5C(C)C6=CC(=O)OC6=CC5(C)C3C(O)C1O)OC(=O)C(O)C24` (configuration not stated) the T/C (dose: 0.5 mg/kg/injection, schedule: Q04DX004 (ip), vehicle: Klucel (hydroxypropylcellulose) (HPC)) was 146 % of control, the T/C (dose: 1.0 mg/kg/injection, schedule: Q04DX004 (ip), vehicle: Klucel (hydroxypropylcellulose) (HPC)) was 138 % of control [9 of 10 alive on day 14] and the T/C [2] was 136 % of control. For the same molecule, the survivor count [2] was 2 of 10 on day 14, the T/C (dose: 3.33 mg/kg/injection, schedule: Q04DX003 (ip), vehicle: Klucel (hydroxypropylcellulose) (HPC)) was 128 % of control and the survivor count (dose: 4.0 mg/kg/injection, schedule: Q04DX004 (ip), vehicle: Klucel (hydroxypropylcellulose) (HPC)) was 0 of 10 on day 14 and 5 of 10 on day 14.
In the case of `O=c1c(-c2nn[nH]n2)cnc2sc3cc(Cl)ccc3n12`, the survivor count (dose: 300.0 mg/kg/injection, schedule: Q04DX004 (ip), vehicle: saline with Tween-80) is reported as 10 of 10 on day 14 and the survivor count [3] is reported as 5 of 10 on day 14.
`CCn1c2ccc(N)cc2c2c3ncc4cccn4c3ccc21` was tested, and the survivor count [3] was 9 of 10 on day 14.
With `CC(=O)C1C(=O)C(=O)N(c2ccc(C)cc2C)C1=O` (configuration not stated) the survivor count [4] was 5 of 10 on day 14, the survivor count [1] was 3 of 10 on day 14 and the survivor count (dose: 800.0 mg/kg/injection, schedule: Q04DX004 (ip), vehicle: Klucel (hydroxypropylcellulose) (HPC)) was 0 of 10 on day 14.
In the case of `O=S1(=O)CS(=O)(=O)OCCO1`, the T/C (dose: 25.0 mg/kg/injection, schedule: Q01DX001 (oral), vehicle: Klucel (hydroxypropylcellulose) (HPC)) is reported as 126 % of control, the T/C (dose: 50.0 mg/kg/injection, schedule: Q01DX001 (oral), vehicle: Klucel (hydroxypropylcellulose) (HPC)) is reported as 141 % of control and the survivor count (dose: 100.0 mg/kg/injection, schedule: Q01DX009 (oral), vehicle: Klucel (hydroxypropylcellulose) (HPC)) is reported as 4 of 10 on day 14. The survivor count [5] was 1 of 10 on day 14 and 4 of 10 on day 14, the survivor count (dose: 200.0 mg/kg/injection, schedule: Q01DX001 (oral), vehicle: Klucel (hydroxypropylcellulose) (HPC)) was 2 of 10 on day 14 and the survivor count [4] was 0 of 10 on day 14. For the same molecule, the survivor count [1] was 0 of 10 on day 14.
With `Oc1cccc2ccccc12` the survivor count (dose: 200.0 mg/kg/injection, schedule: Q04DX004 (ip), vehicle: water) was 9 of 10 on day 14 and the survivor count (dose: 400.0 mg/kg/injection, schedule: Q04DX004 (ip), vehicle: water) was 0 of 10 on day 14.
For `Cc1c(O)c2ccccc2c2c1sc(NCCCN(CCO)CCO)[n+]2C`, the survivor count (dose: 60.0 mg/kg/injection, schedule: Q04DX004 (ip), vehicle: saline) was 3 of 9 on day 14 and the survivor count (dose: 120.0 mg/kg/injection, schedule: Q04DX004 (ip), vehicle: saline) was 0 of 10 on day 14.
`Clc1ccc(CC(Cn2ccnc2)c2ccccc2Cl)cc1` (configuration not stated) was tested, and the survivor count (dose: 250.0 mg/kg/injection, schedule: Q04DX004 (ip), vehicle: saline with Tween-80) was 7 of 10 on day 14.
With `CNC(=O)Oc1ccc(S(=O)(=O)c2ccc(OC(=O)NC)cc2)cc1` the survivor count (dose: 400.0 mg/kg/injection, schedule: Q04DX004 (ip), vehicle: saline with Tween-80) was 0 of 10 on day 14 and 3 of 10 on day 14.
For `O=S1(=O)C(c2ccccc2)=C(O)c2cc3ccccc3nc21`, the survivor count (dose: 500.0 mg/kg/injection, schedule: Q04DX004 (ip), vehicle: saline with Tween-80) was 0 of 10 on day 14.
In the case of `S=c1sc(-c2ccc(Cl)cc2)nn1CSc1nc2ccccc2[nH]1`, the survivor count [3] is reported as 9 of 10 on day 14.
With `N=C(N)c1nn(C2OC(CO)C(O)C2O)c2nc[nH]c(=O)c12` (configuration not stated) the T/C (dose: 25.0 mg/kg/injection, schedule: Q04DX004 (ip), vehicle: Klucel + Tween-80) was 126 % of control, the T/C (dose: 50.0 mg/kg/injection, schedule: Q04DX004 (ip), vehicle: Klucel + Tween-80) was 135 % of control and the survivor count (dose: 100.0 mg/kg/injection, schedule: Q04DX004 (ip), vehicle: Klucel + Tween-80) was 3 of 10 on day 14. For the same molecule, the survivor count (dose: 138.88 mg/kg/injection, schedule: Q04DX004 (ip), vehicle: Klucel + Tween-80) was 1 of 10 on day 14 and the survivor count (dose: 138.89 mg/kg/injection, schedule: Q04DX004 (ip), vehicle: other) was 4 of 10 on day 14.
For `Cc1ccc2c(c1)C1(C)OC(C=CC1=O)O2` (configuration not stated), the survivor count [5] was 0 of 10 on day 14, the survivor count [4] was 0 of 10 on day 14 and the survivor count [1] was 0 of 10 on day 14.
For `O=C(Nc1ccc([N+](=O)[O-])cc1)C1C(=O)C(=O)N(c2ccc([N+](=O)[O-])cc2)C1=O` (configuration not stated), the survivor count (dose: 400.0 mg/kg/injection, schedule: Q04DX004 (ip), vehicle: Klucel + Tween-80) was 2 of 10 on day 14 and the survivor count (dose: 800.0 mg/kg/injection, schedule: Q04DX004 (ip), vehicle: Klucel + Tween-80) was 0 of 10 on day 14.
`C[CH2][Sn]([CH2]C)([CH2]C(=O)OC)[CH2]C(=O)OC` was tested, and the survivor count (dose: 24.0 mg/kg/injection, schedule: Q04DX004 (ip), vehicle: saline with Tween-80) was 6 of 10 on day 14.
In the case of `N=C(N)Sc1ccccn1`, the survivor count (dose: 500.0 mg/kg/injection, schedule: Q04DX004 (ip), vehicle: saline) is reported as 7 of 10 on day 14 and the survivor count (dose: 1000.0 mg/kg/injection, schedule: Q04DX004 (ip), vehicle: saline) is reported as 0 of 10 on day 14.
`Cc1ccc(C(=O)[O][Hg][CH2]C2COC([CH2][Hg][O]C(=O)c3ccc(C)cc3)CO2)cc1` (configuration not stated) was tested, and the survivor count (dose: 50.0 mg/kg/injection, schedule: Q04DX004 (ip), vehicle: saline with Tween-80) was 9 of 10 on day 14 and the survivor count (dose: 100.0 mg/kg/injection, schedule: Q04DX004 (ip), vehicle: saline with Tween-80) was 9 of 10 on day 14.
With `CN(C)CCC(=O)C(=Cc1ccc(O)cc1)C(=O)CCN(C)C` the survivor count (dose: 400.0 mg/kg/injection, schedule: Q04DX004 (ip), vehicle: saline) was 0 of 10 on day 14.
With `Cc1nnc2c3nccnc3c(Cl)nn12` the survivor count (dose: 240.0 mg/kg/injection, schedule: Q04DX004 (ip), vehicle: saline with Tween-80) was 3 of 10 on day 14.
`COC12[C@@H]3N[C@@H]3CN1C1=C(C(=O)C(NCCSSCCNC3=C(C)C(=O)C4=C(C3=O)C(COC(N)=O)[C@]3(OC)C5N[C@@H]5CN43)=C(C)C1=O)[C@@H]2COC(N)=O` (some centres not stated) was tested, and the T/C (dose: 1.5 mg/kg/injection, schedule: Q04DX004 (ip), vehicle: other) was 129 % of control, the T/C (dose: 1.56 mg/kg/injection, schedule: Q04DX004 (ip), vehicle: other) was 130 % of control and the T/C (dose: 3.12 mg/kg/injection, schedule: Q04DX004 (ip), vehicle: other) was 143 % of control. The T/C (dose: 6.25 mg/kg/injection, schedule: Q04DX004 (ip), vehicle: other) was 143 % of control, the survivor count (dose: 24.0 mg/kg/injection, schedule: Q04DX004 (ip), vehicle: other) was 0 of 10 on day 14 and the survivor count (dose: 25.0 mg/kg/injection, schedule: Q04DX004 (ip), vehicle: other) was 8 of 10 on day 14.
